# Data taken from PubChem BioAssay AID651640 (Broad Institute, 2012).
# Among all 350,000 compounds or so, about 6,000 (1.7%) were called active. Inconclusive results, whose numbers are uncertain, are shown with a selection of clear calls. No stated cut-off is given here; in the data, active means CPE inhibition above about 20% (passing the limit was not always enough); inconclusive means no clear call, values can overlap the other calls; tested in BHK-21 cells.
# Assay: protection of cells from dengue 2 killing – plate reader, single concentration, primary screen (AID 651640);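 further: 0% = median of neutral control wells and 100% = median of positive control wells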
# Conditions: DENV2-infected cells, cytopathic effect rescue, at 9.99 µM, hits give high values
row,SMILES,CPE inhibition
1,O=C([C@H]1O[C@@H](n2ccc(=O)[nH]c2=O)[C@H](O)[C@@H]1O)N1CCN(c2ccc(Cl)cn2)CC1,active: 44.5%
2,O=C(C[C@@H]1C=C[C@H](NC(=O)Nc2ccccc2F)[C@H](CO)O1)NCc1ccc(-c2ccccc2)cc1,inconclusive: 20.4%
3,CC=Cc1ccc2n(c1=O)C[C@@H]1[C@@H](CO)[C@H](C(=O)N3CCCCC3)N(Cc3ccccc3OC)[C@H]21 (mixture of isomers),inactive: 7.54%
4,C[C@H](CO)N1C[C@H](C)[C@H](CN(C)Cc2ccc(C(F)(F)F)cc2)Oc2ccc(NC(=O)Nc3cccc4ccccc34)cc2CC1=O,active: 42.2%
5,CC(C)(C(=O)N1CCC1(C)C(=O)NS(=O)(=O)c1cccc(Cl)c1)c1ccccc1 (centres undefined),active: 43.7%
6,Cc1ccc(S(=O)(=O)N2[C@@H](c3cccc(Cl)c3)C(C(=O)O)=CC[C@H]2c2cccc(C)c2)cc1,inconclusive: 55.5%
7,CCCCCCCCN1[C@@H](CC(=O)OCC)c2cc(F)ccc2S1(=O)=O,inconclusive: 25.9%
8,C[C@H]1CN([C@@H](C)CO)C(=O)c2cc(NC(=O)C3CCCCC3)ccc2O[C@@H]1CN(C)Cc1ccc(C(F)(F)F)cc1,inactive: -14.1%
9,CCOc1ccc(CC(=O)Nc2ccc(S(=O)(=O)N3CCCC3)cc2)cc1,inconclusive: 31.3%
10,CC1(C(=O)NCc2cccc(C(F)(F)F)c2)CCN1Cc1cc2ccccc2o1 (centres undefined),active: 55.6%
11,COc1ccc(Cl)cc1S(=O)(=O)N(C)CC(=O)N1CCOCC1,inconclusive: 28.9%
12,CCc1nc2c(OCc3ccc(F)c(F)c3)cccn2c1N(C)C(=O)CC(C)C,inconclusive: 25.8%
13,C[C@H](CO)N1C[C@H](C)[C@H](CN(C)CC2CCCCC2)Oc2ccc(NC(=O)NC3CCCCC3)cc2C1=O,active: 29.1%
14,COc1ccccc1[C@H]1C(c2cccc(C)c2)=NN(c2ccccc2)[C@@H]1CO,inconclusive: 36.5%
15,CN(C)CC#Cc1ccc([C@H]2[C@@H](CO)N3CCCCN(C(=O)c4ccc5c(c4)OCO5)C[C@H]23)cc1,active: 22.3%
16,O=C(CNc1ccc(Br)cc1)Nc1ccc(S(=O)(=O)N2CCCCC2)cc1,inconclusive: 60.8%
17,CCN1CCN(c2ncnc3scc(-c4ccc(OC)cc4)c23)CC1,inconclusive: 23.3%
18,CCNC(=O)C[C@@H]1CC[C@H]2[C@@H](COC[C@@H](O)CN2S(=O)(=O)c2ccccc2F)O1,active: 23%
19,COc1ccccc1C(=O)N1C[C@@H]2[C@H](c3ccccc31)[C@H](CO)N2C(=O)C1CCCC1,active: 21.8%

# 2 compounds drawn at random from the list so far, as already listed:
row,SMILES,CPE inhibition
3,CC=Cc1ccc2n(c1=O)C[C@@H]1[C@@H](CO)[C@H](C(=O)N3CCCCC3)N(Cc3ccccc3OC)[C@H]21 (mixture of isomers),inactive: 7.54%
1,O=C([C@H]1O[C@@H](n2ccc(=O)[nH]c2=O)[C@H](O)[C@@H]1O)N1CCN(c2ccc(Cl)cn2)CC1,active: 44.5%
